PubChem BioAssay AID1224830 | NIAID, 2016

Purpose: 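Regulators of TLR4 signalling towards TNF-alpha in macrophage-like cells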 (primary screen)
Cell system: human THP-1 monocytic leukaemia cells, TNF dual-luciferase reporter clone, PMA-differentiated to macrophage-like cells
Knock-down reagent: siRNA pool against human genes, 50 nM
Timing: LPS for 4 h, given about 3 days after siRNA transfection
Conditions: bacterial LPS (TLR4 ligand), 10 ng/ml
Measured: 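TNF firefly reporter luminescence divided by renilla, normalised to the plate median, then turned into a robust z-score for each replicate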
Direction: TNF reporter robust z-score: higher = stronger TNF reporter response to LPS
Hit rule: 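Each well counts as active if its z-score is over 2.8 or under -1.5; controls are left without a call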
The deposit covers about 18,000 reagents; below is a random part of them. About 2,900 of them (16%) count as active. 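Calls are made per well; low scores hint the gene aids the LPS response, high scores that it dampens it.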 Repeated entries: four replicate wells of each siRNA pool.

gene knocked down,TNF reporter robust z-score,Call
TCF4,-0.84,inactive
TCF4,1.24,inactive
TCF4,0.84,inactive
TCF4,1.77,inactive
PINK1,-0.47,inactive
PINK1,-0.61,inactive
PINK1,-0.19,inactive
PINK1,-0.27,inactive
GCM1,-0.59,inactive
GCM1,1.55,inactive
GCM1,0.42,inactive
GCM1,1.94,inactive
PGLYRP4,3.52,active
PGLYRP4,1.21,inactive
PGLYRP4,0.2,inactive
PGLYRP4,0.43,inactive
DNAAF19,-0.09,inactive
DNAAF19,0.16,inactive
DNAAF19,-0.51,inactive
DNAAF19,0.33,inactive
ETV1,-0.16,inactive
ETV1,-0.14,inactive
ETV1,-0.55,inactive
ETV1,0.33,inactive
CDC40,-0.41,inactive
CDC40,-0.74,inactive
CDC40,0.02,inactive
CDC40,0.21,inactive
PABIR1,-0.28,inactive
PABIR1,0.53,inactive
PABIR1,-0.2,inactive
PABIR1,0.45,inactive

The list goes on (7 carried over from the part before).
gene knocked down,TNF reporter robust z-score,Call
CDC40,-0.74,inactive
CDC40,0.02,inactive
CDC40,0.21,inactive
PABIR1,-0.28,inactive
PABIR1,0.53,inactive
PABIR1,-0.2,inactive
PABIR1,0.45,inactive
CKS1B,-0.2,inactive
CKS1B,0.31,inactive
CKS1B,0.69,inactive
CKS1B,0.62,inactive
BOLA3,0.32,inactive
BOLA3,0.94,inactive
BOLA3,1.52,inactive
BOLA3,1.03,inactive
TMEM41A,-1.27,inactive
TMEM41A,0.25,inactive
TMEM41A,-0.13,inactive
TMEM41A,0.09,inactive
MSANTD2,-0.96,inactive
MSANTD2,-0.28,inactive
MSANTD2,-0.38,inactive
MSANTD2,-0.35,inactive
MPEG1,0.45,inactive
MPEG1,0.78,inactive
MPEG1,0,inactive
MPEG1,1.24,inactive
HACD3,-0.57,inactive
HACD3,-0.03,inactive
HACD3,-0.18,inactive
HACD3,1.39,inactive
ANKRD13D,-0.15,inactive
ANKRD13D,0.04,inactive
ANKRD13D,-0.75,inactive
ANKRD13D,-0.47,inactive
R3HDM4,0.07,inactive
R3HDM4,0.8,inactive
R3HDM4,-0.36,inactive
R3HDM4,0.31,inactive
PSORS1C1,-0.35,inactive
PSORS1C1,0.63,inactive
PSORS1C1,-0.29,inactive
PSORS1C1,0.36,inactive
RBMS3,-0.98,inactive
RBMS3,-0.87,inactive
RBMS3,-1.15,inactive
RBMS3,-0.33,inactive
ZMYND8,-0.62,inactive
ZMYND8,-0.92,inactive
ZMYND8,-0.77,inactive
ZMYND8,-0.38,inactive
